Laboratory results from PMC9646716.
These are yes or no findings as the source states them, for the method shown. Binding seen in cells or lysates may run through a third protein. Some binding calls cover weakened binding; strength is not graded here.

Amino acid sequences for entries named in this document (tags omitted).
UniProt Q61286: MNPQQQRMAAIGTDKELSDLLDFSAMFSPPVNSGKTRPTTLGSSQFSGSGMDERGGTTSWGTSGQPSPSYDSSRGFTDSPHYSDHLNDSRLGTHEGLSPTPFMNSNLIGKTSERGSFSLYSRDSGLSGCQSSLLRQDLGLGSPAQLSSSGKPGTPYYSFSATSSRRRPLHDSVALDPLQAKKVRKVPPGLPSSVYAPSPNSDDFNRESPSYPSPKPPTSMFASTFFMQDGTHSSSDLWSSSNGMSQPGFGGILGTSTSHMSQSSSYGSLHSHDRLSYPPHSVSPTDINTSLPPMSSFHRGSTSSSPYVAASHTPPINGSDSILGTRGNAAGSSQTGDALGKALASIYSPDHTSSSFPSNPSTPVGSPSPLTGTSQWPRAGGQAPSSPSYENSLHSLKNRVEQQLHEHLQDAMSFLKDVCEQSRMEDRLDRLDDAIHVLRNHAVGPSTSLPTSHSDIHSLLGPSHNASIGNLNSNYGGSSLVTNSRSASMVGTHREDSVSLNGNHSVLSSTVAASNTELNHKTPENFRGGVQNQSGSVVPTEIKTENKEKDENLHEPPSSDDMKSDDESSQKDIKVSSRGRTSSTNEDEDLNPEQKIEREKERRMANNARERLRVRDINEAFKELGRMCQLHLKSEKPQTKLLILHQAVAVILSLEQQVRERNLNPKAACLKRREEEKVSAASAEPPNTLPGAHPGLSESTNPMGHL
UniProt P10085: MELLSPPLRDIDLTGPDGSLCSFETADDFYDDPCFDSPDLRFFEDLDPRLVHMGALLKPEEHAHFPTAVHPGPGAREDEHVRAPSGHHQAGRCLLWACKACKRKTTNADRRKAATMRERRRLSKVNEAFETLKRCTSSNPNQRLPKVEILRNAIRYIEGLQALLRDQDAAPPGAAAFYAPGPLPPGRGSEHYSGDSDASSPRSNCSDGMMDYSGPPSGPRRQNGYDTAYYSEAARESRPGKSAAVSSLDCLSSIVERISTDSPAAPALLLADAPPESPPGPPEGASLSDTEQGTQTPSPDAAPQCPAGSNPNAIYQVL

Experiments:
[1] = target: transcription factor 12 (TCF12) (mouse (endogenous in C2C12)) (UniProt Q61286); assay: co-IP; lysate of C2C12 myoblasts (0 h); anti-TCF12 (HEB A-6) or IgG on Protein-G beads, overnight at 4 °C, washed with PBST; blotted with anti-MYOD and anti-TCF12
[2] = target: transcription factor 12 (TCF12) (mouse (endogenous in C2C12)) (UniProt Q61286); assay: condition: only in differentiated C2C12 myotubes (60 h); co-IP; lysate of C2C12 myotubes (60 h of differentiation); antibodies on Protein-G beads, overnight at 4 °C, washed with PBST; blotted
[3] = target: transcription factor 12 (TCF12) (mouse (endogenous in C2C12)) (UniProt Q61286); assay: co-IP; lysate of C2C12 myotubes (60 h of differentiation); antibodies on Protein-G beads, overnight at 4 °C, washed with PBST; blotted

binding [1]	binding [2]	binding [3]	Molecule
binds	no binding	–	MYOD (from UniProt P10085 1-318)
–	–	binds	MYOG (protein, UniProt P12979 1-224) MELYETSPYFYQEPHFYDGENYLPVHLQGFEPPGYERTELSLSPEARGPLEEKGLGTPEHCPGQCLPWACKVCKRKSVSVDRRRAATLREKRRLKKVNEAFEALKRSTLLNPNQRLPKVEILRSAIQYIERLQALLSSLNQEERDLRYRGGGGPQPMVPSECNSHSASCSPEWGNALEFGPNPGDHLLAADPTDAHNLHSLTSIVDSITVEDMSVAFPDETMPN
